From PubChem BioAssay AID2685 (National Center for Advancing Translational Sciences (NCATS), 2010)
About 2,100 (0.66%) of roughly 320,000 compounds were called active. Inconclusive results, whose numbers are uncertain, are shown with a selection of clear calls. Calls come from the whole dose curve; as a rule, active = well fitted inhibition curve with a large enough effect in the signal ratio, with a control signal flat (not every such curve was filed as active); inconclusive = small, poorly fitted or top-dose-only effect, or effect the other way, or a change in a side signal; inactive = flat fitted curve, though single readings scatter; the % refers to the signal ratio. A potency beside an inconclusive call is a rough fit, not a confirmed value.

Experiment: qHTS Assay for Lipid Storage Modulators in Drosophila S3 Cells
Conditions: BODIPY lipid droplet fluorescence, 18-24 h, cells fed with added oleic acid; lipid storage change, negative = inhibition: at 46.1 µM (top of the series) unless noted
How it was run: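 Laser-scanning cytometry quantifies lipid droplet accumulation (500–530 nm total intensity; droplet/cell object ratio) in oleic acid-fed (400 uM added) Drosophila S3 cells treated with a concentration series. 20 uM Triacsin C defined 100% inhibition.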
% is set by controls: 0 for no effect and ±100 for the full control effect; potency is the fitted concentration of half-maximal effect.

SMILES	lipid storage change, negative = inhibition	Potency
Cc1cc(C)n2nc(SCc3nnc(-c4cccs4)o3)nc2n1	inconclusive: 12.3%	
CC(C)Oc1ncnc2c1[nH]c1ccccc12		inconclusive: 23.1 µM [falling, single point]
O=C(NNc1cccc(Cl)n1)C(F)(F)F	inconclusive: -16.2%	
Cc1cc(NC(=O)CSc2nc3c(cc2C#N)CCC3)no1		inconclusive: 18.4 µM [falling, single point]
COc1cccc(N2CCN(CC(=O)Nc3ccccc3C(=O)NCc3ccccc3)CC2)c1	inconclusive: 24.9%	
CCCCCC1CCC(c2nnc(SCC(C)=O)o2)CC1 (configuration not stated)	inconclusive: 13.7%	
CCCCNC(=O)C1CCC(CNS(=O)(=O)c2ccc(C)cc2)CC1 (configuration not stated)	inconclusive: -19.9%	
Cn1c(Cn2c3ccccc3c3ccccc32)n[nH]c1=S	inactive: 2.12%	
Cc1cccc(NC(=S)NCC(c2cccnc2)N2CCOCC2)c1C (configuration not stated)	inconclusive: 12.5%	
COc1ccc(C)cc1N(CC(=O)N1CCCCCC1)S(=O)(=O)c1ccc(C)cc1	inconclusive: 10.3%	
COc1ccc(N2CCN(C(CNC(=O)C3CCCCC3)c3ccco3)CC2)cc1 (configuration not stated)		inconclusive: 0.259 µM [falling, full curve, poor fit]
COc1ccc(NC(=O)C(OC)c2ccccc2)cc1Cl (configuration not stated)		inconclusive: 0.461 µM [activator, partial curve, poor fit]
CC(C)(C)[C@H]1CCC(=O)N([C@H](CSc2ccc(Br)cc2)Cc2ccccc2)CC1		inconclusive: 0.0046 µM [activator, full curve, poor fit]
O=C(NC(=S)NC1CCCCC1)c1ccc(F)cc1	inconclusive: 2.32%	
Cc1c(C(=O)OC(C)C)sc2nc[nH]c(=O)c12		inconclusive: 0.0146 µM [falling, full curve, poor fit]
CC(C)CN1CCN(Cc2ccc3ncccc3c2)CC1CCO (configuration not stated)	inconclusive: -0.664%	
CC(=O)c1ccc(-c2cc([C@H]3[C@H]4C=CC[C@@H](C)[C@@H]4C(=O)N3Cc3ccccc3)ccc2F)cc1	inconclusive: -18.5%	
Cc1csc(SCC(=O)Nc2nc3ccccc3s2)n1	inconclusive: 64.3%	
CCn1c(=O)[nH]c2cc(C(=O)N3CCN(c4ccccc4)CC3)ccc2c1=O	inconclusive: 23.7%	
CCCCCCOc1ccc(N2C(=O)CC(N3CCN(CCN=CC4=C(O)CC(C)(C)CC4=O)CC3)C2=O)cc1 (configuration not stated)	inconclusive: -23.8%	
Cc1cc(N2CCN(C)CC2)n2nc(-c3ccc(Cl)cc3)nc2n1	inconclusive: 10.7%	
CCOc1ccc(CCn2c(-c3ccco3)nc3ccccc3c2=O)cc1OCC		inconclusive: 1.46 µM [activator, full curve]
Cc1sc2ncnc(SCC(=O)Nc3nc(-c4ccc(F)c(F)c4)cs3)c2c1C	inconclusive: -27.4%	
COc1ccc2[nH]c3c(=O)n(CCCC(=O)NC4CCC(C)CC4)c(=S)[nH]c3c2c1 (configuration not stated)		active: 2.31 µM
CCOc1ccc(NC(=O)C2CCC(N3C(=O)C4CC=CCC4C3=O)CC2)cc1 (configuration not stated)	inconclusive: -41.9%	
CCCCOC(=O)C1[C@H]2C(=O)N(CCc3ccccc3)C[C@]23C=C[C@H]1O3 (some centres not stated)		inconclusive: 29.1 µM [activator, single point]

Full records, looked up by structure:
Cc1sc2ncnc(SCC(=O)Nc3nc(-c4ccc(F)c(F)c4)cs3)c2c1C is listed as lipid storage change, negative = inhibition: inconclusive: -27.4%
Cc1cc(C)n2nc(SCc3nnc(-c4cccs4)o3)nc2n1 is listed as lipid storage change, negative = inhibition: inconclusive: 12.3%
COc1ccc2[nH]c3c(=O)n(CCCC(=O)NC4CCC(C)CC4)c(=S)[nH]c3c2c1 (configuration not stated) is listed as Potency: active: 2.31 µM
CCCCNC(=O)C1CCC(CNS(=O)(=O)c2ccc(C)cc2)CC1 (configuration not stated) is listed as lipid storage change, negative = inhibition: inconclusive: -19.9%

Remaining list, next part.

SMILES	lipid storage change, negative = inhibition	Potency
O=c1[nH]nc(SCCS(=O)(=O)c2ccc(F)cc2)n1-c1ccccc1	inconclusive: 9.21%	
CCOC(=O)c1cnn(Cc2ccc(C)cc2)c1N	inconclusive: 22.1%	
Cc1c(C(=O)NCCN(C)C)oc2ccc(S(=O)(=O)N3CCCC3)cc12		active: 0.116 µM
CC(Oc1ccc(F)cc1)c1nnc(SCC(=O)N(c2ccccc2)C2CCS(=O)(=O)C2)o1 (configuration not stated)	inconclusive	
Cc1c(C=N)c(O)n(C)c(=O)c1C#N	inconclusive: -14%	
Cn1c(=O)n(C)c2cc(NC(=O)COc3ccccc3)ccc21	inconclusive: -45.7%	
COc1cc(CCC(=O)OCC(=O)Nc2sccc2C(N)=O)cc(OC)c1OC	inconclusive	
COc1ccccc1-c1nnc2sc(-c3ccc(N(C)C)cc3)nn12	inconclusive: -13.4%	
COc1ccc(CCC(=O)NNC(=O)Nc2ccc(C(C)=O)cc2)cc1	inconclusive: 14%	
O=C(NCc1ccncc1)C(=O)NCC1OCCCN1S(=O)(=O)c1ccccc1 (configuration not stated)	inconclusive: -10.3%	
NS(=O)(=O)c1ccc(NCC2COc3ccccc3O2)c([N+](=O)[O-])c1 (configuration not stated)	inconclusive: -58.5%	
CC(NC(=O)C(=S)N1CCN(C)CC1)c1ccccc1 (configuration not stated)	inconclusive: 13.2%	
Cc1cc(S(=O)(=O)N2CCCOC2CNC(=O)C(=O)NCc2cccs2)ccc1F (configuration not stated)		inconclusive: 0.206 µM [activator, full curve, poor fit]
Cc1nc2ccc(NC(=O)Cc3ccsc3)cc2s1	inconclusive: -2.36%	
CC(Sc1nc2ccc(C(=O)c3ccccc3)cc2[nH]1)C(=O)O (configuration not stated)		inconclusive: 6.51 µM [falling, single point]
Cc1nnc(-c2cnn(C)c2N)n1Cc1cccc(Cl)c1		inconclusive: 2.06 µM [rising, partial curve, poor fit]
Cc1ccc(C)c(N2CCN(C(=O)CSc3ccsc3[N+](=O)[O-])CC2)c1	inconclusive: -0.726%	
Cc1ccc([N+](=O)[O-])c(C)[n+]1C	inconclusive: -93.6%	
CC(=O)c1cc(Cl)ccc1OCC(=O)NC1CCCC1	inconclusive	
Cc1csc2c(=O)n(CCO)c(=O)[nH]c12		inconclusive: 0.0065 µM [falling, full curve, poor fit]
CCOC(=O)CSc1nc2sccc2c(=O)[nH]1		inconclusive: 29.1 µM [cytotoxic, single point]
O=C(c1ccc(-c2cccc([N+](=O)[O-])c2)o1)N1CCN(c2ccc([N+](=O)[O-])cc2)CC1		inconclusive: 2.31 µM [activator, partial curve]
CC1Cc2ccccc2N1S(=O)(=O)c1cccc(C(=O)N2Cc3ccccc3CC2C(N)=O)c1 (configuration not stated)		inconclusive: 29.1 µM [falling, single point]
COc1ccc(OC)c(C(=O)c2ccc(C(=O)N3CCCCC3)cc2)c1	inconclusive: 40.5%	
Cc1sc2nc(Cc3ccccc3)[nH]c(=O)c2c1-c1ccccc1	inconclusive: 12.4%	
CCN(CCCC(=O)c1ccc(F)cc1)CCc1ccccc1		inconclusive: 18.4 µM [activator, partial curve]

SMILES	lipid storage change, negative = inhibition	Potency
O=C(NNc1nc(-c2ccc(F)cc2)cs1)c1ccccc1	inconclusive: 5.17%	
Cc1cccc(-c2cc3nc(C)cc(N4CC(C)CC(C)C4)n3n2)c1 (configuration not stated)		inconclusive: 6.51 µM [falling, single point]
COc1ccc(-c2cc(C)no2)cc1S(=O)(=O)N(C)Cc1ccco1		inconclusive: 0.651 µM [activator, full curve, poor fit]
COc1ccc(NC(=O)Nc2nccs2)cc1		inconclusive: 2.59 µM [activator, single point]
Cc1ccc(NNC(=O)c2snnc2C)cc1Cl		inconclusive: 2.31 µM [activator, single point]
CNC(=O)c1nc(C)n(-c2cc(Cl)ccc2Cl)n1	inconclusive: 55%	
CCOc1cc(CNc2ccc(N3CCCC3)cc2)cc(Cl)c1OC	inconclusive: 16.6%	
CS(=O)(=O)N(CC(=O)N/N=C/c1cccs1)c1cccc(Cl)c1Cl	inconclusive: -17.6%	
COc1ccc(C(=O)/C(=C\c2sccc2C)c2nc3ccccc3o2)cc1		inconclusive: 13 µM [activator, partial curve]
O=C(COc1ccc(Cl)cc1Cl)N1CCN(c2ccccn2)CC1	inconclusive: 52.5%	
CSc1ccccc1C(=O)NCc1ccccc1C		inconclusive: 23.1 µM [cytotoxic, partial curve, poor fit]
O=C1/C(=C\c2ccco2)SC(=S)N1c1ccccc1	inconclusive: -0.065%	
Cc1ccc(S(=O)(=O)N(C)C)cc1-n1c(SCC(=O)Nc2ccc(F)c(F)c2F)nc2ccccc2c1=O	inconclusive: 23.4%	
N#Cc1ccccc1COC(=O)CCC(=O)c1cccs1	inconclusive: 18.4%	
COc1ccc(Br)cc1/C=C/C(=O)NC(=S)Nc1ccc(CN2CCOCC2)cc1		inconclusive: 6.51 µM [activator, single point]
N#Cc1sc(C(N)=O)c(-c2ccccc2)c1-c1ccccc1	inconclusive: 3.54%	
CS(=O)(=O)c1ccc(C(=O)OCC(=O)NC23CC4CC(CC(C4)C2)C3)cc1[N+](=O)[O-]	inconclusive: -19.9%	
CCOC(=O)/C(C#N)=C/c1cccn1-c1ccc(Cl)cc1	inconclusive: 4.5%	
CCOc1ccc(CN(C)C(=O)c2ccc(=O)[nH]c2)cc1	inconclusive: 54.1%	
CC(c1nnc(SCC(=O)N(C)C2CCS(=O)(=O)C2)n1-c1ccccc1)N(C)C (configuration not stated)		inconclusive: 14.6 µM [activator, partial curve]
Cc1nc2ccccc2c(=O)n1/N=C/c1ccc(N(C)C)cc1		inconclusive: 0.58 µM [activator, full curve, poor fit]
O=C(NCCCN1CCOCC1)C(=O)N/N=C/c1ccccc1Cl	inconclusive: 1.85%	
N#Cc1ccc(CC(C(=O)O)N2Cc3ccccc3C2=O)cc1 (configuration not stated)	inconclusive: -16.4%	
COc1ccc(-c2cc(C(=O)N3CCCCC3)c3ccccc3n2)cc1OC	inconclusive: 5.12%	
COc1ccc(C(CC(=O)NCc2ccccc2)Sc2n[nH]c(-c3ccccc3)n2)cc1 (configuration not stated)		inconclusive: 8.2 µM [falling, partial curve]
